About 610 (0.16%) of roughly 390,000 compounds were called active. Inconclusive results, whose numbers are uncertain, are shown with a selection of clear calls. Calls follow the shape of the dose curve; as a rule, active = well fitted inhibition curve with a large enough effect; inconclusive = small, poorly fitted or top-dose-only effect, or effect the other way, or another doubt; inactive = no such curve, though single readings can be large or run the other way. Potencies beside an inconclusive call are fits to weak or partial responses and may not hold up.
Test: Nrf2 qHTS screen for inhibitors: counterscreen for cytotoxicity
Settings: A549 ARE-Fluc cells, CellTiter-Fluor viability, 18-24 h; series mostly up to 46 µM; activity change, negative = cytotoxicity: at the top concentration
Outline: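 A549 ARE-Fluc cells in 5% FBS OPTI-MEM, 5000 cells/well, rested 2 h then exposed to compounds in concentration-response for 18-24 h at 37 °C. Viability by CellTiter-Fluor fluorescence (Ex 405/Em 525) after 30 min; luciferase luminescence (BugLite, 15 min, RT) read afterwards.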
In the case of `CCOC(=O)Cn1c(=O)oc2cc(S(=O)(=O)N3CCN(c4ccccc4F)CC3)ccc21`, the Potency is reported as inconclusive: 8.2 µM [activator, partial curve, poor fit].
In the case of `CC(C)OCCCNC(=O)c1c(N)n(Cc2cccs2)c2nc3ccccc3nc12`, the Potency is reported as inconclusive: 29.1 µM [falling, partial curve, poor fit].
With `CC(=O)OC(C)(C)/C=C/C(=O)C(C)(O)C1[C@H](O)C[C@@]2(C)C3CC=C4C(CC[C@@H](O)C4(C)C)[C@]3(CO)C(=O)C[C@]12C` (stereo partly specified) the Potency was active: 0.259 µM.
With `CC(C)NS(=O)(=O)c1ccc(OCC(=O)N2CCN(Cc3ccc4c(c3)OCO4)CC2)c(Cl)c1` the “activity change, negative = cytotoxicity” value was inactive: -16.3%.
For `O=C1CN=C(c2ccccc2Cl)c2cc(Cl)ccc2N1Cc1cccc(Cl)c1`, the Potency was inconclusive: 29.1 µM [falling, single point].
For `CCNc1cc(N2CCN(C)CC2)ccc1[N+](=O)[O-]`, the “activity change, negative = cytotoxicity” value was inactive: -26.7%.
With `COc1ccc2c(c1)C(c1ccc(N(CCCl)CCCl)cc1)=NCC2` the Potency was inconclusive: 29.1 µM [falling, single point].
For `CCN(CC)S(=O)(=O)c1ccc(C)c(NCC(=O)Nc2ccc(C#N)c(Cl)c2)c1`, the Potency was inconclusive: 20.6 µM [falling, single point].
With `CCCC1=C(C(=O)OCC)C2(C(=O)Nc3ccc(C)cc32)C(C#N)=C(N)O1` (stereo unspecified) the Potency was inconclusive: 3.66 µM [falling, partial curve, poor fit].
In the case of `Cc1cccc(N=C2c3cc([N+](=O)[O-])ccc3-c3c2cc([N+](=O)[O-])cc3[N+](=O)[O-])c1`, the Potency is reported as inconclusive: 29.1 µM [falling, single point].
In the case of `Cc1nc2cc([N+](=O)[O-])ccc2c(=O)n1-c1ccc(Br)cc1`, the Potency is reported as inconclusive: 3.26 µM [activator, full curve, poor fit].
For `COc1ccc(C=C2C(=O)NC(=S)NC2=O)cc1OC`, the “activity change, negative = cytotoxicity” value was inactive: -16.8%.
With `COc1ccc(CC2NCC(O)C2OC(C)=O)cc1` (stereo unspecified) the Potency was inconclusive: 0.231 µM [falling, full curve].
For `CN1C(=O)N(C)C(=O)C2(Cc3cc([N+](=O)[O-])ccc3N(C)C2)C1=O`, the Potency was inconclusive: 18.4 µM [falling, partial curve, poor fit].
With `CN1[C@@H]2CC[C@H]1CC(OC(=O)C1C=Nc3ccccc31)C2` (stereo partly specified) the Potency was inconclusive: 14.6 µM [falling, partial curve, poor fit].
For `CCOC(=O)C(NC(=O)CCl)(Nc1ccc(C(O)(C(=O)OCC)C(F)(F)F)cc1)C(F)(F)F` (stereo unspecified), the Potency was inconclusive: 25.9 µM [falling, partial curve, poor fit].
% is scaled to controls: 0 for no effect and ±100 for the full control effect; potency is read from the fitted curve at half-maximal effect.
